The list shows a part of the results. Most entries show no effect beyond the scatter of the controls.

Sequences of proteins named here, by UniProt entry; tags and fusion partners are left off. A change or cut given only in a name is not applied to a line headed by its entry.
UniProt P35227: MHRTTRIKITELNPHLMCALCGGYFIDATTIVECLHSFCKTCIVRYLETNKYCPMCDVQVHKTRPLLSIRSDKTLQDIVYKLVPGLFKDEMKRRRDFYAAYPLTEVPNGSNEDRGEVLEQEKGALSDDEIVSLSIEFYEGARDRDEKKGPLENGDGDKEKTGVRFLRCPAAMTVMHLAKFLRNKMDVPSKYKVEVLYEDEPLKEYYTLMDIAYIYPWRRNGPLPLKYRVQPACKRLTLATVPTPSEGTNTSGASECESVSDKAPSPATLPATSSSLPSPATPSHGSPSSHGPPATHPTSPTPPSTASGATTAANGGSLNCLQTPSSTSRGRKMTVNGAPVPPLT
UniProt P30419: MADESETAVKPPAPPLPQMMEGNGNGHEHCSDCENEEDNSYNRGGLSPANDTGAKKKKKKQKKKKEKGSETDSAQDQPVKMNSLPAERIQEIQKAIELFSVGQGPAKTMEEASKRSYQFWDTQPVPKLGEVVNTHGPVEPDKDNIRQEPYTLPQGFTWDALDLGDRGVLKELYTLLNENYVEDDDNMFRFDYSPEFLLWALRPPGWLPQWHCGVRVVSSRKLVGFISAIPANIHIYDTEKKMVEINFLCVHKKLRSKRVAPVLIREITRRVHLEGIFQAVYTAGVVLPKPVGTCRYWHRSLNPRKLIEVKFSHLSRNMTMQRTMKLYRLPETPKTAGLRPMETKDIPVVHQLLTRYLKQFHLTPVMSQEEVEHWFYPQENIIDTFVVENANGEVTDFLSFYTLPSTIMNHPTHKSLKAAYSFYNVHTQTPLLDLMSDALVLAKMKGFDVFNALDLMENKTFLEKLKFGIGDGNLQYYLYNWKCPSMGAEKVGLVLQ
UniProt P30260, whole entry: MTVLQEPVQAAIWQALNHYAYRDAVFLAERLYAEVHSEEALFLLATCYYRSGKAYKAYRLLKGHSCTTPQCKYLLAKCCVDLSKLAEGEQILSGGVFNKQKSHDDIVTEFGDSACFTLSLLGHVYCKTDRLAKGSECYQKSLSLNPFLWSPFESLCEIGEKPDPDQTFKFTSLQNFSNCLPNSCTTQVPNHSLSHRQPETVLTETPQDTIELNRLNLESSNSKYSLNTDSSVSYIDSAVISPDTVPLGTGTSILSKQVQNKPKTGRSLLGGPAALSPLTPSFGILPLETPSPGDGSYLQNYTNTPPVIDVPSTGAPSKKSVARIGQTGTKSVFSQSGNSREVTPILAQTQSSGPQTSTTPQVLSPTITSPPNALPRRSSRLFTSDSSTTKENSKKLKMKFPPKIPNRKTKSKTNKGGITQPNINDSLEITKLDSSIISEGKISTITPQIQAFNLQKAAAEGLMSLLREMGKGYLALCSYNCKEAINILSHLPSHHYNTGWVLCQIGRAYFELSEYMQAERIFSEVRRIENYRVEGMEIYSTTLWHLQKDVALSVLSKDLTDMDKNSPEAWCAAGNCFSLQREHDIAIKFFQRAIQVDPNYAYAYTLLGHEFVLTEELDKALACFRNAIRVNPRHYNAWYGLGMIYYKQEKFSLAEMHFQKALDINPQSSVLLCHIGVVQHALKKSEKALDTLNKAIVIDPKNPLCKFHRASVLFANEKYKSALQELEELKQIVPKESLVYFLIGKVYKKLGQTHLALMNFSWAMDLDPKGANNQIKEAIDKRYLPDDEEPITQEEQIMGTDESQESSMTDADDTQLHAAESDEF
UniProt P36959: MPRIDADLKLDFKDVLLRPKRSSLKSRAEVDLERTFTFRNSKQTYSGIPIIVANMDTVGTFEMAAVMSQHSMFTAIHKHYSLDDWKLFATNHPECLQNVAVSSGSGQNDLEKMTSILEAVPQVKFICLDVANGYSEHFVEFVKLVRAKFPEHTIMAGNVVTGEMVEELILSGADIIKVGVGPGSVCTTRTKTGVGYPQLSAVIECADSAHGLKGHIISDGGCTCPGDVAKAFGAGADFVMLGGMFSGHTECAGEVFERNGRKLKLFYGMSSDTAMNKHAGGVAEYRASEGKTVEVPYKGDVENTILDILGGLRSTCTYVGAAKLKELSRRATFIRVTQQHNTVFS
UniProt P30520: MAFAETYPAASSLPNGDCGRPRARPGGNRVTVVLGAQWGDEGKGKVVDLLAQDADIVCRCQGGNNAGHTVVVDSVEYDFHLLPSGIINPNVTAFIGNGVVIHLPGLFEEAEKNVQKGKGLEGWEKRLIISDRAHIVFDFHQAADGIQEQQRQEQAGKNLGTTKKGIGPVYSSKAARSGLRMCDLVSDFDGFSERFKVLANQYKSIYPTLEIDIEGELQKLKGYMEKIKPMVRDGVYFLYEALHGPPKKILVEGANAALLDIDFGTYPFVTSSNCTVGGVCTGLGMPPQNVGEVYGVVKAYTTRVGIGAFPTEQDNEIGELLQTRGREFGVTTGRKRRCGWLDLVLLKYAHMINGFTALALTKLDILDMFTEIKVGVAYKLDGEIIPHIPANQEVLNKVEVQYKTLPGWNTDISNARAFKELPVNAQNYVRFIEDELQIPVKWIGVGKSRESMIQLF
UniProt P42679: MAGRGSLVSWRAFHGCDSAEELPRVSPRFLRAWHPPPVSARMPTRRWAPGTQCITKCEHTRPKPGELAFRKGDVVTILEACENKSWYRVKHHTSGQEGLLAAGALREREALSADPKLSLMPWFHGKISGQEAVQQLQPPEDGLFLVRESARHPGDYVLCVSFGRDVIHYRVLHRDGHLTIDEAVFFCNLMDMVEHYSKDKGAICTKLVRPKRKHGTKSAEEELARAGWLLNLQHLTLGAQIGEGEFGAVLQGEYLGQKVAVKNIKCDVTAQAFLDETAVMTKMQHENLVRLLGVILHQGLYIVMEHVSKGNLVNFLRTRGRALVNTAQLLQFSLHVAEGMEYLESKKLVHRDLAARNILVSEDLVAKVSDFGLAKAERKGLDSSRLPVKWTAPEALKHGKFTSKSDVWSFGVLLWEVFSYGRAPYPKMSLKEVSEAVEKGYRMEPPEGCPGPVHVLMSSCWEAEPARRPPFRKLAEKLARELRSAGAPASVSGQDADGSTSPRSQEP
UniProt P35226: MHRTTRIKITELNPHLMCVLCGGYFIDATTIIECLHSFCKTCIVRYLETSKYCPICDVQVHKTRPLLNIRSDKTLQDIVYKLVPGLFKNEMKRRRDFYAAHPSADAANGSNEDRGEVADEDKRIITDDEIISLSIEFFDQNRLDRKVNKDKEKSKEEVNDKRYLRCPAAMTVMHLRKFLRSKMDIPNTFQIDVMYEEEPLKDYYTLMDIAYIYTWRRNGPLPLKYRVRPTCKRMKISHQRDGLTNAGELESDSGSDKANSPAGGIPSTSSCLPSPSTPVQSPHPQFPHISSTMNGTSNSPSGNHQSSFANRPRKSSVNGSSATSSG
UniProt P34932: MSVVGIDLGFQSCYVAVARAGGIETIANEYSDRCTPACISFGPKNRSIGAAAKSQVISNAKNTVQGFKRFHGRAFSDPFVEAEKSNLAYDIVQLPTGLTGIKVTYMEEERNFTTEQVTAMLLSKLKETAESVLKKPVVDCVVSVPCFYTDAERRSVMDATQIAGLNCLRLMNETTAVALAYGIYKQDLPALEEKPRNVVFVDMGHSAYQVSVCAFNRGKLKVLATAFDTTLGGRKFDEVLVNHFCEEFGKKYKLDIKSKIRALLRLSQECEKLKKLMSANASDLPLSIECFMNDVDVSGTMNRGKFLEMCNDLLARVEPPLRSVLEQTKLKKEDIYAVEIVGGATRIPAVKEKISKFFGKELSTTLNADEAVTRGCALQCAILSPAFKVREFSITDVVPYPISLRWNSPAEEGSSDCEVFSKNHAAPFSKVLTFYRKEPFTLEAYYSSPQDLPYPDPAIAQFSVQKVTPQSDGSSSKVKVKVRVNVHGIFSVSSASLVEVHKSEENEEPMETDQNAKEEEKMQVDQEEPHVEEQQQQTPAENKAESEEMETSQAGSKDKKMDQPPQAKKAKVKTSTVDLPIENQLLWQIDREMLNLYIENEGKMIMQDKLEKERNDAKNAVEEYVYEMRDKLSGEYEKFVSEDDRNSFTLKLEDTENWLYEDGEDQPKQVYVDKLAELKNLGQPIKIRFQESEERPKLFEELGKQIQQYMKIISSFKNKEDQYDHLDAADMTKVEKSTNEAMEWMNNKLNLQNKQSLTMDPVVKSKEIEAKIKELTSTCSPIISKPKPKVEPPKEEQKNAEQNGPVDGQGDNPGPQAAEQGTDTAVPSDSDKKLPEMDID
UniProt P40424: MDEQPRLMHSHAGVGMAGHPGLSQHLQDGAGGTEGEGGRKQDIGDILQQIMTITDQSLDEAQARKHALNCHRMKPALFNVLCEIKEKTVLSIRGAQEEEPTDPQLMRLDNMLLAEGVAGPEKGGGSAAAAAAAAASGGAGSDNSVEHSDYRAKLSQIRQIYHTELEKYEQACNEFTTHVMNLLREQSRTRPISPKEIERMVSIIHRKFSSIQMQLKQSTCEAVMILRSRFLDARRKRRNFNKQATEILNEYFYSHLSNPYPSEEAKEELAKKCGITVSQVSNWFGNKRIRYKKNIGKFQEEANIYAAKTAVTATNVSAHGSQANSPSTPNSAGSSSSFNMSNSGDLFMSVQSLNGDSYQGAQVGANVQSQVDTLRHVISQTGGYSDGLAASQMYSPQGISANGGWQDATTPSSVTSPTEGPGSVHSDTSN
UniProt P36776: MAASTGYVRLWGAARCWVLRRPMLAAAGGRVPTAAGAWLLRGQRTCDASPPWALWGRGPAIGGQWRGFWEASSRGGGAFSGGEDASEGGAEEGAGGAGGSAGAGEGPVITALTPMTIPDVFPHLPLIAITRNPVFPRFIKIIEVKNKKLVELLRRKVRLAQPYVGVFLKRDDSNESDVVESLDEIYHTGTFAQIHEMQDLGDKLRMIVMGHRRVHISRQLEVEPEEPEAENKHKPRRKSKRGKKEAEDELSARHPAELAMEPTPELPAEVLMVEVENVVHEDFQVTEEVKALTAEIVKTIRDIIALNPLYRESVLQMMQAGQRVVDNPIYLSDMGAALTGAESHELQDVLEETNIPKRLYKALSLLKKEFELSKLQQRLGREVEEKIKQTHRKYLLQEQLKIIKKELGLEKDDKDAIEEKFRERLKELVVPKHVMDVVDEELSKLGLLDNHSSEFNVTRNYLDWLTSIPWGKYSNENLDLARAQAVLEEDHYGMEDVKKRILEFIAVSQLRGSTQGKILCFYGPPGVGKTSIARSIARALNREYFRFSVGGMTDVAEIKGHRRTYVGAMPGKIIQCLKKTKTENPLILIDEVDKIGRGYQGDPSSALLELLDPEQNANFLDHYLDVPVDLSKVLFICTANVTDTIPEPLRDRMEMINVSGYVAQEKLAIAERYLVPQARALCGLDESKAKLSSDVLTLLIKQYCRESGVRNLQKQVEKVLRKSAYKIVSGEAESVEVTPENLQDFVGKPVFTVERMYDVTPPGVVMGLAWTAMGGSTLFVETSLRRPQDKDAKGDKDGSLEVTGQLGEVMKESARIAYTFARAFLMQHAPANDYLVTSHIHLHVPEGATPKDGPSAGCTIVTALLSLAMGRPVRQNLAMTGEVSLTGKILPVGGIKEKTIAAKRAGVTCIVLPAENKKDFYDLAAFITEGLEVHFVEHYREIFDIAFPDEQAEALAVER
UniProt P33316: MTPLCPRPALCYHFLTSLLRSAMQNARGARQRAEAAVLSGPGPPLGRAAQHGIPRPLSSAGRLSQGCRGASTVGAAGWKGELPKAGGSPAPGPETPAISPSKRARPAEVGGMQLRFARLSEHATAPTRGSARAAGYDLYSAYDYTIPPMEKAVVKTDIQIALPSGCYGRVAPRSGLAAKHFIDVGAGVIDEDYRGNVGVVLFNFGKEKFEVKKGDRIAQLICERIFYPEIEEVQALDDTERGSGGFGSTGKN
UniProt P40937, whole entry: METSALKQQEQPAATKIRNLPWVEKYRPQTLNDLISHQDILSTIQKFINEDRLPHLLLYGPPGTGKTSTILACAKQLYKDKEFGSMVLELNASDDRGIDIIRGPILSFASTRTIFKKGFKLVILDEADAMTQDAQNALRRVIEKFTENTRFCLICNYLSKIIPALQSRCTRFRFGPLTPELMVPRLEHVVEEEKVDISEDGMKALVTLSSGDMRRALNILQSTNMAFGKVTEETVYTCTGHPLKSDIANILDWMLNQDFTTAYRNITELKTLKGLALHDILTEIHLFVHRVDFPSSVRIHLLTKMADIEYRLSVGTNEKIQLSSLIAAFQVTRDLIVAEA
UniProt P35219: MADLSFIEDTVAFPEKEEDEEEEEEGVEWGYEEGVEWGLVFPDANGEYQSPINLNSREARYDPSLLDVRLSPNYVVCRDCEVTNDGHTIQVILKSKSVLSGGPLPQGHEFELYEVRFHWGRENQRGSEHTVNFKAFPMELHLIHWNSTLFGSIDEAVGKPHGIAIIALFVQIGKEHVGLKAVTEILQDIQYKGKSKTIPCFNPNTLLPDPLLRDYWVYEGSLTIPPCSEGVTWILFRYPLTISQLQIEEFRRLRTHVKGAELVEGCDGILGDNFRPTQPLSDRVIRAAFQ
UniProt P40616: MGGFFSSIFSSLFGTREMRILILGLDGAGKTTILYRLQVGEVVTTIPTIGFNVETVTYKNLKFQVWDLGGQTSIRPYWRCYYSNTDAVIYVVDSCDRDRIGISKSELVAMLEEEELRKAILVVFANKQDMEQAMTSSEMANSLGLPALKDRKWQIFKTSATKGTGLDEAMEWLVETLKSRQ

Compound in the assay: Cc1nc(Nc2ncc(C(=O)Nc3c(C)cccc3Cl)s2)cc(N2CCN(CCO)CC2)n1 [dasatinib]
As to the kind of experiment: log2 fold change of tryptic peptide abundance, ligand vs vehicle (limited proteolysis) (log2 ratio); higher = more trypsin-susceptible (destabilized). To be noted: ligand concentration: 5 uM; sample: K562 cleared lysate.
Take “RFC3 (peptide sequence: KALLMCEACR, peptide start residue: 225) (UniProt P40938)”: the log2 fold change is 0.772.

Regarding “PCGF2 (peptide sequence: KGPLENGDGDKEK, peptide start residue: 148) (UniProt P35227)”, the log2 fold change stood at 0.212.

As to “NMT1 (peptide sequence: GGLSPANDTGAK, peptide start residue: 44) (UniProt P30419)”, the log2 fold change was -0.0308.

Take “CDC27 (peptide sequence: SALQELEELKQIVPK, peptide start residue: 721) (UniProt P30260)”: the log2 fold change was -0.565.

As for “PPIF (peptide sequence: TSKKIVITDCGQLS, peptide start residue: 194) (UniProt P30405)”, the log2 fold change was 0.113.

Turning to “RPL3 (peptide sequence: VLTLRKSLLVQTK, peptide start residue: 344) (UniProt P39023)”, the log2 fold change came out at 1.09.

In the case of “UniProt P42356 (peptide sequence: LCERFPVVVHSVTPSLR, peptide start residue: 492)”, the log2 fold change was -0.449.

As to “KIF5B (peptide sequence: CKQLESTQTESNKK, peptide start residue: 608) (UniProt P33176)”, the log2 fold change amounted to 0.835.

Take “EIF4A3 (peptide sequence: MREANFTVSSMHGDMPQKER, peptide start residue: 297) (UniProt P38919)”: the log2 fold change stood at 0.63.

Regarding “GMPR (peptide sequence: LKLFYGMSSDTAMNK, peptide start residue: 263) (UniProt P36959)”, the log2 fold change was -0.381.

Regarding “POLR2B (peptide sequence: IFVNGCWVGIHKDPEQLMNTLR, peptide start residue: 567) (UniProt P30876)”, the log2 fold change was -0.287.

“YWHAB (peptide sequence: MKGDYFR, peptide start residue: 121) (UniProt P31946)”: the log2 fold change stood at 0.0831.

For “NUP214 (peptide sequence: DAGGMVIDMK, peptide start residue: 147) (UniProt P35658)”, the log2 fold change is -0.521.

For “SFN (peptide sequence: SAYQEAMDISKK, peptide start residue: 149) (UniProt P31947)”, the log2 fold change came out at 0.299.

On to “UniProt P41743 (peptide sequence: DLKLDNVLLDSEGHIK, peptide start residue: 378)”, for which the log2 fold change is -0.203.

On to “RDX (peptide sequence: KTQNDVLHAENVKAGR, peptide start residue: 544) (UniProt P35241)”, for which the log2 fold change amounted to 1.

Take “UniProt P30520 (peptide sequence: AHIVFDFHQAADGIQEQQR, peptide start residue: 133)”: the log2 fold change was found to be 0.2.

Regarding “UniProt P42679 (peptide sequence: AWHPPPVSAR, peptide start residue: 32)”, the log2 fold change was -0.499.

As to “PTPN6 (peptide sequence: GLDCDIDIQK, peptide start residue: 477) (UniProt P29350)”, the log2 fold change was 0.287.

Regarding “ATIC (peptide sequence: TLHPAVHAGILAR, peptide start residue: 67) (UniProt P31939)”, the log2 fold change was -0.0732.

Turning to “BMI1 (peptide sequence: SKEEVNDKR, peptide start residue: 154) (UniProt P35226)”, the log2 fold change stood at 0.152.

In the case of “HSPA4 (peptide sequence: DKLSGEYEK, peptide start residue: 630) (UniProt P34932)”, the log2 fold change amounted to 0.135.

For the target “UniProt P29536 (peptide sequence: MTVTNLLSR, peptide start residue: 461)”, the log2 fold change is -0.0943.

Consider “P41778 (peptide sequence: KCGITVSQVSNWFGNKR, peptide start residue: 283) (UniProt P40424)”, for which the log2 fold change was 0.137.

For the target “WEE1 (peptide sequence: YTTEFHELEK, peptide start residue: 295) (UniProt P30291)”, the log2 fold change is -0.374.

Consider “MAGEA8 (peptide sequence: AEMLESVIK, peptide start residue: 126) (UniProt P43361)”, for which the log2 fold change is -0.317.

As to “CASP3 (peptide sequence: KITNFFR, peptide start residue: 138) (UniProt P42574)”, the log2 fold change was 0.356.

Consider “LONP1 (peptide sequence: AGVTCIVLPAENKK, peptide start residue: 905) (UniProt P36776)”, for which the log2 fold change is -0.205.

Turning to “KDM5A (peptide sequence: QELQQAR, peptide start residue: 896) (UniProt P29375)”, the log2 fold change turned out to be 0.314.

Consider “PEBP1 (peptide sequence: CDEPILSNR, peptide start residue: 133) (UniProt P30086)”, for which the log2 fold change is -0.371.

For “ELF1 (peptide sequence: ESEDHLKENTEK, peptide start residue: 573) (UniProt P32519)”, the log2 fold change was 0.771.

Take “RBL1 (peptide sequence: LFGEDPPKEMLMDK, peptide start residue: 660) (UniProt P28749)”: the log2 fold change is 0.181.

Regarding “DUT (peptide sequence: AAQHGIPRPLSSAGR, peptide start residue: 48) (UniProt P33316)”, the log2 fold change was -0.374.

As for “RFC5 (peptide sequence: YRPQTLNDLISHQDILSTIQK, peptide start residue: 26) (UniProt P40937)”, the log2 fold change is -0.206.

Regarding “CA8 (peptide sequence: DCEVTNDGHTIQVILK, peptide start residue: 79) (UniProt P35219)”, the log2 fold change is 0.134.

On to “ARL1 (peptide sequence: AILVVFANK, peptide start residue: 119) (UniProt P40616)”, for which the log2 fold change is -0.0456.

Values taken from the supplement of paper PMC12819154, “High-throughput peptide-centric local stability assay extends protein–ligand identification to membrane proteins, tissues and bacteria” (Nature Structural & Molecular Biology, 2025).
